Taken from: PubChem BioAssay AID652272 (Drosophila RNAi Screening Center, 2013)
In all, the deposit lists about 21,000 reagents; below is a random part of those that have a named target and a result. Of all reagents, 503 (2.4%) are marked active. 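Raw plate light values, not normalised; calls rest on replicate z-scores that were not deposited; hits include reporter decreases as well as increases.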 The numbers tell different reagents against one gene apart. Names joined by + are all predicted targets of the reagent. Not stated in the record: the amount of reagent, the time to read-out.

Screen: 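Finding fly genes that regulate Hedgehog signal transduction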 (primary screen)
Cells: Drosophila clone 8 (Cl8) cells
Reagents: long dsRNA against Drosophila genes
Measured: 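Firefly light from a Hedgehog-responsive ptc promoter reporter and Renilla reference light, both read on a plate reader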
Scale: firefly Hh reporter signal: higher = more ptc reporter light; Renilla reference signal: higher = more Renilla control light
Hit rule: 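Called a hit if the two-replicate mean z-score lies below -2 or above +3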
Calls: active = hit: reporter lowered or raised; inactive = not a hit

row #1 → firefly Hh reporter signal, replicate 1: 49049; firefly Hh reporter signal, replicate 2: 72434; Renilla reference signal, replicate 1: 3180; Renilla reference signal, replicate 2: 3960; activity call: inactive
row #2 → firefly Hh reporter signal, replicate 1: 82673; firefly Hh reporter signal, replicate 2: 71536; Renilla reference signal, replicate 1: 2226; Renilla reference signal, replicate 2: 4124; activity call: inactive
Gr58b → firefly Hh reporter signal, replicate 1: 1.02e5; firefly Hh reporter signal, replicate 2: 43115; Renilla reference signal, replicate 1: 2499; Renilla reference signal, replicate 2: 4484; activity call: inactive
CG30275 → firefly Hh reporter signal, replicate 1: 1.16e5; firefly Hh reporter signal, replicate 2: 95383; Renilla reference signal, replicate 1: 3157; Renilla reference signal, replicate 2: 7904; activity call: inactive
trsn → firefly Hh reporter signal, replicate 1: 87117; firefly Hh reporter signal, replicate 2: 32999; Renilla reference signal, replicate 1: 2560; Renilla reference signal, replicate 2: 3689; activity call: inactive
CG12828 → firefly Hh reporter signal, replicate 1: 98550; firefly Hh reporter signal, replicate 2: 60506; Renilla reference signal, replicate 1: 2553; Renilla reference signal, replicate 2: 4368; activity call: inactive
CG32945 → firefly Hh reporter signal, replicate 1: 2.11e5; Renilla reference signal, replicate 1: 4388; activity call: inactive
CG14007 → firefly Hh reporter signal, replicate 1: 89652; firefly Hh reporter signal, replicate 2: 52161; Renilla reference signal, replicate 1: 2577; Renilla reference signal, replicate 2: 5402; activity call: inactive
CR40450 + CG32767 → firefly Hh reporter signal, replicate 1: 77366; firefly Hh reporter signal, replicate 2: 61330; Renilla reference signal, replicate 1: 2132; Renilla reference signal, replicate 2: 2068; activity call: inactive
Fhos #1 → firefly Hh reporter signal, replicate 1: 82794; firefly Hh reporter signal, replicate 2: 1.93e5; Renilla reference signal, replicate 1: 2138; Renilla reference signal, replicate 2: 7040; activity call: inactive
Fhos #2 → firefly Hh reporter signal, replicate 1: 1.27e5; firefly Hh reporter signal, replicate 2: 74092; Renilla reference signal, replicate 1: 5184; Renilla reference signal, replicate 2: 3139; activity call: inactive
Fhos #3 → firefly Hh reporter signal, replicate 1: 1.56e5; firefly Hh reporter signal, replicate 2: 99474; Renilla reference signal, replicate 1: 6173; Renilla reference signal, replicate 2: 4008; activity call: inactive
Fhos #4 → firefly Hh reporter signal, replicate 1: 65860; firefly Hh reporter signal, replicate 2: 79043; Renilla reference signal, replicate 1: 5941; Renilla reference signal, replicate 2: 6737; activity call: inactive
Madm → firefly Hh reporter signal, replicate 1: 88490; firefly Hh reporter signal, replicate 2: 1.24e5; Renilla reference signal, replicate 1: 3724; Renilla reference signal, replicate 2: 3286; activity call: inactive
